Experimental data: PubChem BioAssay AID493014 (National Center for Advancing Translational Sciences (NCATS), 2011)
The other results are listed elsewhere or left out. Further columns of the screen follow, without active or inactive calls. Compounds called inactive in the main read-out are mostly missing here. The note in brackets gives the kind of curve behind each potency; many fits are weak.

Experiment: qHTS Assay to Find Inhibitors of Chronic Active B-Cell Receptor Signaling
Settings: ABC-DLBCL IkBa-CBG/CBR reporter, luminescence ratio (green luciferase fused to IkBa over red control in TMD8 lymphoma cells), 4 h
Method in brief: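 TMD8 ABC-DLBCL cells carrying doxycycline-inducible green luciferase fused to IkappaBalpha plus unfused red luciferase were exposed to compounds (up to 46 uM) for 4 hrs at 37C. Activity came from the overlap-corrected green/red luminescence ratio.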

[1] = measured here: CBR red luminescence, cell number

| Structure (SMILES) | AC50 [1] | AC50 (measured here: IkBa-CBG green luminescence) |
| --- | --- | --- |
| C/C=C/C=C\C(=O)Nc1cccc(C2=NOC3(C2)C[C@H](C(N)=O)N(C(=O)CC#N)C3)c1 (some centres undefined) | 11.2 µM [falling, partial curve, poor fit] | – |
| O=C(NC(=S)Nc1ccccc1Cl)c1cncc(C#Cc2ccccc2)c1 | 3.16 µM [falling, full curve, poor fit] | – |
| COc1cc(SC)ccc1C(=O)N1CC(C)OC(C)C1 (centres undefined) | 3.98 µM [rising, full curve, poor fit] | – |
| COc1cccc(CN(Cc2ccco2)S(=O)(=O)c2ccc(S(=O)(=O)NCc3ccccc3)cc2)c1OC | 0.184 µM [rising, full curve, poor fit] | – |
| COc1ccc(C(=O)Nc2ccc3nc(C)sc3c2)cc1OC | 10 µM [falling, partial curve] | – |
| COc1ccccc1NCC(=O)N/N=C/c1cccnc1 | 4.47 µM [falling, single point] | – |
| CC(=O)NC1C(=O)N(CCc2ccccc2)c2ccc(Br)cc21 (centres undefined) | 29.1 µM [falling, single point] | – |
| COc1ccc(C2CC(C)=C(C#N)S(=O)(=O)C2C#N)cc1 (centres undefined) | 2 µM [rising, partial curve, poor fit] | – |
| Cc1[nH]c2ccccc2c1C(c1ccncc1)N1CCN(c2ccccn2)CC1 (centres undefined) | 10 µM [falling, partial curve, poor fit] | – |
| C=CCN=C1SC(CC)C(=O)N1S(=O)(=O)c1ccc(C)cc1 (centres undefined) | 0.116 µM [rising, full curve, poor fit] | – |
| CC(=O)Nc1ccc(NC(=O)CCCSc2nc3ccccc3[nH]2)cc1 | 0.1 µM [rising, full curve, poor fit] | – |
| COc1c(Cl)cc(Cl)cc1C(=O)n1nc(C)cc1C | 20.6 µM [rising, partial curve] | – |
| O=C1CSC2(CCCCC2)N1CCO | 35.5 µM [rising, single point] | – |
| O=C(O)C(Cc1ccccc1)N1C(=O)/C(=C/c2cccc3ccccc23)SC1=S (centres undefined) | 20.6 µM [rising, single point] | – |
| COCCn1c(-c2ccccc2)nc2oc3ccccc3c(=O)c2c1=O | 35.5 µM [falling, single point] | – |
| CC(=O)c1sc(N/N=C\c2cccc(Br)c2)nc1C | 0.92 µM [rising, full curve] | – |
| CN(C)c1ccc(/C=C/c2ccc3c4ccccc4ccc3[n+]2-c2ccccc2)cc1 | 25.1 µM [falling, single point] | 14.1 µM [rising, partial curve, poor fit] |
| CC(C(=O)O)c1n[nH]c(=O)c2ccccc12 (centres undefined) | 6.51 µM [rising, single point] | – |

Another view of two compounds above.
Structure (SMILES),AC50 [1],AC50 (measured here: IkBa-CBG green luminescence)
C=CCN=C1SC(CC)C(=O)N1S(=O)(=O)c1ccc(C)cc1 (centres undefined),"0.116 µM [rising, full curve, poor fit]",–
CC(C(=O)O)c1n[nH]c(=O)c2ccccc12 (centres undefined),"6.51 µM [rising, single point]",–
